Measurements: PubChem BioAssay AID1487 (National Center for Advancing Translational Sciences (NCATS), 2009)
The list shows a part of the results. Shown are side measurements of this screen, not its main read-out; they come without a call. The list favours compounds with an active or inconclusive main result. Potencies come from curve fits of mixed quality, noted in brackets.

Experiment: qHTS Assay for Modulators of Lamin A Splicing
Details: HeLa LMNA splicing GFP/RFP minigene ratio, 48 h
Summary of the method: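 S3 HeLa stable clones carrying a lamin A-EGFP splicing minigene plus DsRed2 were seeded at 600 cells/well in Opti-MEM with 2% FBS, pin-dosed and incubated 48 h at 37°C. Acumen cytometry (488 nm) gave the GFP/RFP total-intensity ratio.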

[1] = measured here: GFP splicing reporter channel
[2] = measured here: RFP viability control channel

Row | Compound | AC50 [1] | AC50 [2]
1 | O=C(N/N=C/c1ccco1)c1ccc(NC(=O)C2CC2)cc1 | 35.5 µM [falling, single point] | 
2 | CCCC[C@@H]1C[C@H]1[C@@H](NC(=O)c1cccs1)c1ccc(Cl)cc1 | 17.8 µM [rising, single point] | 25.1 µM [rising, partial curve]
3 | COC(=O)Cn1nc(-c2ccccc2)c2ccccc21 | 4.47 µM [rising, full curve] | 6.31 µM [rising, full curve]
4 | CNC(=S)N/N=C/c1cn(CCOc2ccccc2OC)c2ccccc12 |  | 35.5 µM [rising, single point]
5 | O=C(NCc1ccncc1)c1cc(C(=O)C2CC2)c[nH]1 | 0.447 µM [falling, partial curve, poor fit] | 35.5 µM [falling, partial curve, poor fit]
6 | Cn1c(SCC(=O)N2CCCc3ccccc32)nc2ccccc2c1=O |  | 7.08 µM [rising, full curve]
7 | Cn1nccc1C(=O)N1CCCC(C(=O)c2cccc3ccccc23)C1 (centres undefined) |  | 35.5 µM [falling, single point]
8 | N#CCSc1nnc(COc2cccc3ccccc23)n1-c1ccccc1 | 0.398 µM [rising, full curve, poor fit] | 20 µM [rising, partial curve, poor fit]
9 | CC(C)OCCCn1c(=S)[nH]c2ccc(N3CCOCC3)cc2c1=O | 12.6 µM [rising, single point] | 17.8 µM [rising, single point]
10 | COc1ccc(C(=O)/C=C/C(=O)N(CC(=O)NC2CCCCC2)Cc2cccs2)c(O)c1 | 35.5 µM [falling, single point] | 35.5 µM [falling, single point]
11 | CCCCC(Sc1nc2cc3c(cc2c(=O)n1CCCC(=O)NCc1ccc(OC)cc1)OCO3)C(=O)OCC (centres undefined) |  | 5.62 µM [rising, single point]
12 | CCOC(=O)c1c(C)[nH]c(C2=NNC(=Nc3cccc(Cl)c3)SC2)c1C |  | 20 µM [rising, partial curve, poor fit]
13 | CCN(c1ccc(NS(=O)(=O)c2cc(Cl)ccc2Cl)cc1)C(C)C | 12.6 µM [rising, partial curve, poor fit] | 22.4 µM [rising, single point]
14 | COC(=O)c1ccc2c(c1)NC(=O)CS2 |  | 0.00316 µM [falling, full curve, poor fit]
15 | Cc1ccc(-c2noc(CN(C(=O)C(c3ccccc3)c3ccccc3)C(C)C)n2)cc1 | 35.5 µM [rising, single point] | 
16 | N=C(N)SCc1ccccc1Cl | 35.5 µM [rising, single point] | 35.5 µM [rising, single point]
17 | Cc1ccc(NC(=O)Cn2cc(S(=O)(=O)c3ccc(F)cc3)c(=O)c3cc(F)ccc32)cc1 |  | 0.00447 µM [falling, full curve, poor fit]
18 | Cc1ccc(Cl)cc1N1CCN(c2ncnc3onc(C)c23)CC1 | 5.62 µM [falling, single point] | 

Two consecutive compounds from above:
Row | Compound | AC50 [1] | AC50 [2]
2 | CCCC[C@@H]1C[C@H]1[C@@H](NC(=O)c1cccs1)c1ccc(Cl)cc1 | 17.8 µM [rising, single point] | 25.1 µM [rising, partial curve]
3 | COC(=O)Cn1nc(-c2ccccc2)c2ccccc21 | 4.47 µM [rising, full curve] | 6.31 µM [rising, full curve]

Remaining list, next part:

Row | Compound | AC50 [1] | AC50 [2]
19 | CCCC(=O)Nc1nc2ccc(NC(=O)c3ccccc3F)cc2s1 | 2.82 µM [rising, partial curve] | 
20 | O=S(=O)(Nc1cccc2c1CCCC2)c1cccc(C(F)(F)F)c1 |  | 12.6 µM [rising, partial curve, poor fit]
21 | O=C(CSCc1ccccc1)N1CCN(c2ccc(F)cc2)CC1 |  | 15.8 µM [rising, partial curve]
22 | CC1CC(C)CN(C(=O)C2CCCN(S(=O)(=O)c3cccc4nonc34)C2)C1 (centres undefined) |  | 25.1 µM [rising, single point]
23 | CC1Sc2ccc(Cl)cc2-c2nc(N)ncc21 (centres undefined) |  | 0.00447 µM [falling, full curve, poor fit]
24 | CCC(c1nnnn1C(C)(C)C)N1CCN(c2cc(Cl)ccc2C)CC1 (centres undefined) | 11.2 µM [rising, single point] | 22.4 µM [rising, single point]
25 | Cc1ccc(S(=O)(=O)N(CC(=O)Nc2ccccc2C(=O)O)c2ccccc2)cc1 | 7.94 µM [falling, partial curve] | 11.2 µM [falling, partial curve, poor fit]
26 | CN1C(=O)c2cccc3c(S(=O)(=O)Nc4ccccn4)ccc1c23 |  | 14.1 µM [rising, partial curve]
27 | O=C(O)CCCCn1c(SCc2ccccc2Cl)nc2ccsc2c1=O |  | 0.0708 µM [falling, full curve, poor fit]
28 | CC(C)(Oc1ccc(Cl)cc1)C(=O)N(Cc1ccccc1)c1ccccn1 |  | 35.5 µM [rising, single point]
29 | CC1=CC(C)(C)N(C(=O)CSc2nccn2C)c2cc(C)ccc21 |  | 35.5 µM [rising, single point]
30 | CCSC1=C(C#N)C(c2ccccc2Cl)C(C(=O)c2cccs2)C(O)(C(F)(F)F)N1 (centres undefined) |  | 15.8 µM [rising, single point]
31 | Nc1c([N+](=O)[O-])c(=O)oc2ccccc12 | 0.02 µM [falling, full curve] | 0.0126 µM [falling, full curve]
32 | c1ccc(Cn2c(-c3cccs3)nc3nc4ccccc4nc32)cc1 | 14.1 µM [rising, partial curve, poor fit] | 20 µM [rising, partial curve, poor fit]
33 | Cc1ccc(CNC(=O)Cn2c(=O)n(-c3ccccc3)c(=O)c3sccc32)cc1 |  | 0.0794 µM [falling, full curve, poor fit]
34 | COc1ccc(C(CCNC(C)c2ccccc2)c2ccc(F)cc2)cc1 (centres undefined) |  | 12.6 µM [rising, single point]
35 | O=c1c2ccccc2c(-c2cccc(C(F)(F)F)c2)nn1-c1ccccc1 |  | 6.31 µM [falling, single point]
36 | CCCSCCCNC(=O)c1ccc2nc(Cc3ccccc3)oc2c1 | 1 µM [falling, full curve] | 0.891 µM [falling, full curve]
